Patent US8216786B2, “Genetic polymorphisms associated with cardiovascular diseases, methods of detection and uses thereof” (Celera Corporation, priority 2008, dated 2012)
Further values from the same series stand in other lists.

System: individuals who have previously had an MI
Assay: CARE trial: effect of pravastatin vs placebo on coronary events (endpt1, rmi) by SNP genotype subgroup
Type: in vivo, human
Description: In Tables 21-22, the column labeled “Endpoint” indicates whether the endpoint that was analyzed was the primary endpoint of the CARE study (a composite endpoint of fatal coronary event or nonfatal MI, and identified as “endpt1”) or a composite endpoint of confirmed fatal or nonfatal MI (identified as “rmi”). […] As used herein, the term “benefit” (with respect to a preventive or therapeutic drug treatment) is defined as achieving a reduced risk for a disease that the drug is intended to treat or prevent (e.g., CVD such as CHD, particularly MI, or hypertension) by administering the drug treatment, compared with the risk for the disease in the absence of receiving the drug treatment (or receiving a placebo in lieu of the drug treatment) for the same genotype. […] J. […] (1996) New England Journal of Medicine 335: 1001-1009. […] A well-documented MI was one of the enrollment criteria for entry into the CARE study. Patients were enrolled in the CARE trial from 80 participating study centers. […] For the study of CARE described in this Example and shown in Tables 21-22, two endpoints were investigated: the primary endpoint of CARE (a composite endpoint of fatal coronary event or nonfatal MI, and identified as “endpt1” in the Endpoint column of Tables 21-22) and a composite endpoint of confirmed fatal or nonfatal MI (identified as “rmi” in the Endpoint column of Tables 21-22). […] HR stands for Hazard Ratio, which is a concept similar to Odds Ratio (OR). The HR in event-free survival analysis is the effect of an explanatory variable on the hazard or risk of an event. […] In Table 21, p-interaction values were calculated. An interaction (or effect modification) is formed when a third variable modifies the relation between an exposure and outcome. […] Genotype and drug interaction is present when the effect of statins (incidence rate of disease in statin-treated group, as compared to placebo) differs in patients with different genotypes.

[1] = endpt1, hCV7618856 rs1143675 ITGA4, TT
[2] = endpt1, hCV7841642 rs11666735 FCAR, AG + AA
[3] = endpt1, hCV7841642 rs11666735 FCAR, GG
[4] = endpt1, hCV7900503 rs3732379 CX3CR1, CC
[5] = endpt1, hCV7900503 rs3732379 CX3CR1, TC + TT
[6] = endpt1, hCV16189421 rs1048755 ATXN3, CC
[7] = endpt1, hCV16189421 rs1048755 ATXN3, TC + TT
[8] = endpt1, hCV25651174 rs9277356 HLA-DPB1, AA
[9] = endpt1, hCV25767417 rs3803430 ALDH1A3, AA
[10] = endpt1, hCV25767417 rs3803430 ALDH1A3, GA + GG
[11] = endpt1, hCV25922320 rs12360861 CD6, AG + AA
[12] = endpt1, hCV25922320 rs12360861 CD6, GG
[13] = endpt1, hCV25922440 rs34362748 GALC, CC
[14] = endpt1, hCV25922440 rs34362748 GALC, TC + TT
[15] = endpt1, hCV25922816 rs36013429 PPOX, AG + AA
[16] = endpt1, hCV25922816 rs36013429 PPOX, GG
[17] = endpt1, hCV25926178 rs12882130 MARK3, CC
[18] = endpt1, hCV25926178 rs12882130 MARK3, GC + GG
[19] = endpt1, hCV25926771 rs4906321 MARK3, CT + CC
[20] = endpt1, hCV25926771 rs4906321 MARK3, TT
[21] = endpt1, hCV25927605 HLA-DPA1, CC
[22] = endpt1, hCV25927605 HLA-DPA1, TC + TT
[23] = endpt1, hCV25928135 ADAM12, CT + CC
[24] = endpt1, hCV25941408 rs28497577 MYLK, GG
[25] = endpt1, hCV25941408 rs28497577 MYLK, TG + TT
[26] = endpt1, hCV25942539 rs2401751 PTPN21, AG + AA
[27] = endpt1, hCV25942539 rs2401751 PTPN21, GG
[28] = endpt1, hCV26000635 rs7020782 PAPPA, AA
[29] = endpt1, hCV26000635 rs7020782 PAPPA, CA + CC
[30] = endpt1, hCV2038 rs4673 CYBA, Strata AG + AA
[31] = endpt1, hCV2038 rs4673 CYBA, Strata GG
[32] = endpt1, hCV22303 rs4552916, strata AA
[33] = endpt1, hCV22303 rs4552916, strata GA
[34] = endpt1, hCV22303 rs4552916, strata GG
[35] = endpt1, hCV260164 rs6754295, strata GG
[36] = endpt1, hCV260164 rs6754295, strata TG + TT
[37] = endpt1, hCV461035 rs7746448, strata TC + CC
[38] = endpt1, hCV461035 rs7746448, strata TT
[39] = endpt1, hCV601946 rs524802 ZNF568, strata AA
[40] = endpt1, hCV601946 rs524802 ZNF568, strata AG
[41] = endpt1, hCV601946 rs524802 ZNF568, strata GG
[42] = endpt1, hCV601961 rs568654 ZNF568, strata AA
[43] = endpt1, hCV601961 rs568654 ZNF568, strata AG + GG
[44] = endpt1, hCV601962 rs544543 ZNF568, strata AA
[45] = endpt1, hCV601962 rs544543 ZNF568, strata GA
[46] = endpt1, hCV601962 rs544543 ZNF568, strata GG
[47] = endpt1, hCV610861 rs636887, strata CC
[48] = endpt1, hCV610861 rs636887, strata TC + TT
[49] = endpt1, hCV922535 rs748065, strata AA
[50] = endpt1, hCV922535 rs748065, strata GA
[51] = endpt1, hCV922535 rs748065, strata GG

CC[C@H](C)C(=O)O[C@H]1C[C@H](O)C=C2C=C[C@H](C)[C@H](CC[C@@H](O)C[C@@H](O)CC(=O)O)[C@H]21 [pravastatin]
NONEVENT (Pravastatin arm) (endpt1, hCV7618856 rs1143675 ITGA4, CT + CC): 19
EVENTS (Pravastatin arm) [1]: 127
NONEVENT (Pravastatin arm) [1]: 1264
EVENTS (Pravastatin arm) [2]: 13
NONEVENT (Pravastatin arm) [2]: 183
EVENTS (Pravastatin arm) [3]: 120
NONEVENT (Pravastatin arm) [3]: 1108
EVENTS (Pravastatin arm) [4]: 68
NONEVENT (Pravastatin arm) [4]: 677
EVENTS (Pravastatin arm) [5]: 65
NONEVENT (Pravastatin arm) [5]: 614
EVENTS (Pravastatin arm) [6]: 68
NONEVENT (Pravastatin arm) [6]: 729
EVENTS (Pravastatin arm) [7]: 65
NONEVENT (Pravastatin arm) [7]: 526
EVENTS (Pravastatin arm) [8]: 57
NONEVENT (Pravastatin arm) [8]: 643
EVENTS (Pravastatin arm) [9]: 130
NONEVENT (Pravastatin arm) [9]: 1239
EVENTS (Pravastatin arm) [10]: 3
NONEVENT (Pravastatin arm) [10]: 52
EVENTS (Pravastatin arm) [11]: 62
NONEVENT (Pravastatin arm) [11]: 439
EVENTS (Pravastatin arm) [12]: 70
NONEVENT (Pravastatin arm) [12]: 850
EVENTS (Pravastatin arm) [13]: 103
NONEVENT (Pravastatin arm) [13]: 881
EVENTS (Pravastatin arm) [14]: 30
NONEVENT (Pravastatin arm) [14]: 377
EVENTS (Pravastatin arm) [15]: 14
NONEVENT (Pravastatin arm) [15]: 184
EVENTS (Pravastatin arm) [16]: 119
NONEVENT (Pravastatin arm) [16]: 1075
EVENTS (Pravastatin arm) [17]: 52
NONEVENT (Pravastatin arm) [17]: 478
EVENTS (Pravastatin arm) [18]: 80
NONEVENT (Pravastatin arm) [18]: 786
EVENTS (Pravastatin arm) [19]: 79
NONEVENT (Pravastatin arm) [19]: 778
EVENTS (Pravastatin arm) [20]: 53
NONEVENT (Pravastatin arm) [20]: 482
EVENTS (Pravastatin arm) [21]: 122
NONEVENT (Pravastatin arm) [21]: 1206
EVENTS (Pravastatin arm) [22]: 10
NONEVENT (Pravastatin arm) [22]: 80
EVENTS (Pravastatin arm) [23]: 41
NONEVENT (Pravastatin arm) [23]: 479
EVENTS (Pravastatin arm) (endpt1, hCV25928135 ADAM12, TT): 92
NONEVENT (Pravastatin arm) (endpt1, hCV25928135 ADAM12, TT): 785
EVENTS (Pravastatin arm) [24]: 115
NONEVENT (Pravastatin arm) [24]: 1052
EVENTS (Pravastatin arm) [25]: 18
NONEVENT (Pravastatin arm) [25]: 238
EVENTS (Pravastatin arm) [26]: 63
NONEVENT (Pravastatin arm) [26]: 700
EVENTS (Pravastatin arm) [27]: 70
NONEVENT (Pravastatin arm) [27]: 559
EVENTS (Pravastatin arm) [28]: 51
NONEVENT (Pravastatin arm) [28]: 624
EVENTS (Pravastatin arm) [29]: 82
NONEVENT (Pravastatin arm) [29]: 665
EVENTS (Pravastatin arm) [30]: 89
NONEVENT (Pravastatin arm) [30]: 728
EVENTS (Pravastatin arm) [31]: 44
NONEVENT (Pravastatin arm) [31]: 563
EVENTS (Pravastatin arm) [32]: 86
NONEVENT (Pravastatin arm) [32]: 788
EVENTS (Pravastatin arm) [33]: 37
NONEVENT (Pravastatin arm) [33]: 408
EVENTS (Pravastatin arm) [34]: 13
NONEVENT (Pravastatin arm) [34]: 70
EVENTS (Pravastatin arm) [35]: 9
NONEVENT (Pravastatin arm) [35]: 68
EVENTS (Pravastatin arm) [36]: 127
NONEVENT (Pravastatin arm) [36]: 1195
EVENTS (Pravastatin arm) [37]: 89
NONEVENT (Pravastatin arm) [37]: 785
EVENTS (Pravastatin arm) [38]: 47
NONEVENT (Pravastatin arm) [38]: 481
EVENTS (Pravastatin arm) [39]: 17
NONEVENT (Pravastatin arm) [39]: 175
EVENTS (Pravastatin arm) [40]: 74
NONEVENT (Pravastatin arm) [40]: 554
EVENTS (Pravastatin arm) [41]: 45
NONEVENT (Pravastatin arm) [41]: 536
EVENTS (Pravastatin arm) [42]: 18
NONEVENT (Pravastatin arm) [42]: 190
EVENTS (Pravastatin arm) [43]: 118
NONEVENT (Pravastatin arm) [43]: 1072
EVENTS (Pravastatin arm) [44]: 44
NONEVENT (Pravastatin arm) [44]: 522
EVENTS (Pravastatin arm) [45]: 71
NONEVENT (Pravastatin arm) [45]: 545
EVENTS (Pravastatin arm) [46]: 18
NONEVENT (Pravastatin arm) [46]: 191
EVENTS (Pravastatin arm) [47]: 28
NONEVENT (Pravastatin arm) [47]: 247
EVENTS (Pravastatin arm) [48]: 108
NONEVENT (Pravastatin arm) [48]: 1017
EVENTS (Pravastatin arm) [49]: 74
NONEVENT (Pravastatin arm) [49]: 611
EVENTS (Pravastatin arm) [50]: 48
NONEVENT (Pravastatin arm) [50]: 541
EVENTS (Pravastatin arm) [51]: 14
NONEVENT (Pravastatin arm) [51]: 114
